Results are given in words; binding and its absence hold for the method and conditions named. In cells and extracts the contact can be indirect. These calls come from enrichment with a bait or labelling near it, and not all partners need be listed. For part of these data: Where a sequence is shown, tags or fusion partners need not be part of it.
T1: FLAG-NTurboID^194-SALL1^ΔSUMO (UniProt Q9NSC2)
T1 sequence: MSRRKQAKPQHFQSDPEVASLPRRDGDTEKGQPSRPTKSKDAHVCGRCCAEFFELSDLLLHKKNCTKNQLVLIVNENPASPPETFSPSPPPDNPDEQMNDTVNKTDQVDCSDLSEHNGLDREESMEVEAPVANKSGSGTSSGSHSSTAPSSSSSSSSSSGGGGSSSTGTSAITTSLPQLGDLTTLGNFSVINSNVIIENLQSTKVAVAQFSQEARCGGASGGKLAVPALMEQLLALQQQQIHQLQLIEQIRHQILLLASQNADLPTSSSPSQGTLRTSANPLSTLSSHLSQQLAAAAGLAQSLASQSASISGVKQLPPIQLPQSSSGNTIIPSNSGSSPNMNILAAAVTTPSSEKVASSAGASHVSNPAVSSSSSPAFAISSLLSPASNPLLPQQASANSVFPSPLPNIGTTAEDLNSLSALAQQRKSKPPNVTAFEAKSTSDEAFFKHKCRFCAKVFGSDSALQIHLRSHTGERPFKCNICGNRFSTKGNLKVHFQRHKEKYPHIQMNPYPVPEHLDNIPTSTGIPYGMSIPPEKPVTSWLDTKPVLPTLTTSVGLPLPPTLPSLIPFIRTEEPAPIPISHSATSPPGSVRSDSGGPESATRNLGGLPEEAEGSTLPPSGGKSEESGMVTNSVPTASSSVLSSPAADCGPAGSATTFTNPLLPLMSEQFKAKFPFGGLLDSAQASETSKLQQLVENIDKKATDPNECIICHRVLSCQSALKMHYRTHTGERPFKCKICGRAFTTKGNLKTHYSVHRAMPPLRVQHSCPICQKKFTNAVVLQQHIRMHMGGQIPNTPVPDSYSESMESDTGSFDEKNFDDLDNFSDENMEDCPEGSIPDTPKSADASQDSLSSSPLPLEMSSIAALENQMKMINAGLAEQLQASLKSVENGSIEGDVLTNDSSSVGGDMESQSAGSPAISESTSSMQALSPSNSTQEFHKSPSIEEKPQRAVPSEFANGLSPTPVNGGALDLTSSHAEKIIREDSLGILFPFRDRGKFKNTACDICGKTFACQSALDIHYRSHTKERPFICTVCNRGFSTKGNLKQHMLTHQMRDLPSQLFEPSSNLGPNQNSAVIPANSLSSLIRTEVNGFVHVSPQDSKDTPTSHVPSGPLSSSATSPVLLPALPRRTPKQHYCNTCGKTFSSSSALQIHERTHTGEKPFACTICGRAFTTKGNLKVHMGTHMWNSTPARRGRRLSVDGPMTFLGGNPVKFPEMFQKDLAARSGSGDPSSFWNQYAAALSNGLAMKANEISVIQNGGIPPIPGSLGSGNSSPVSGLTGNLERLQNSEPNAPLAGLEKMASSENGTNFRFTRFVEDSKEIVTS

Chains of the proteins cited; added tags and fusions are not shown. Lines headed by an entry give the natural chain unless they say otherwise; changes in a name come on top. A line that says so, or that is headed by a name, gives the form on record, which may keep a tag or linker.
FLTbID-PML^WT (P29590, form named): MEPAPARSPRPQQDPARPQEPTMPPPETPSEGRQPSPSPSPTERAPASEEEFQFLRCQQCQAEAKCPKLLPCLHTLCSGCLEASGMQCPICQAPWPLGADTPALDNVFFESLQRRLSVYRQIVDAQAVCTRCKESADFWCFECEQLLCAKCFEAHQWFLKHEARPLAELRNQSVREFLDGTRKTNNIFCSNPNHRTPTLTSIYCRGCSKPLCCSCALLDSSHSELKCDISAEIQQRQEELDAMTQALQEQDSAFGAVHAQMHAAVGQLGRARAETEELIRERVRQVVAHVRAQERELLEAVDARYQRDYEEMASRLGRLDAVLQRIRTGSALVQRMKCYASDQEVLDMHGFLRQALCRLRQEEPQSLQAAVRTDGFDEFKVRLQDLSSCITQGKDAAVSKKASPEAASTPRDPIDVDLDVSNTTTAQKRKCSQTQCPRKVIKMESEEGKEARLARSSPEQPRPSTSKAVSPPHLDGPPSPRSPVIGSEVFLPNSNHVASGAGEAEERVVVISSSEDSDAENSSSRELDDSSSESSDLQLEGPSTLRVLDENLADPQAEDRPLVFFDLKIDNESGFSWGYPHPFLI
UniProt P51587: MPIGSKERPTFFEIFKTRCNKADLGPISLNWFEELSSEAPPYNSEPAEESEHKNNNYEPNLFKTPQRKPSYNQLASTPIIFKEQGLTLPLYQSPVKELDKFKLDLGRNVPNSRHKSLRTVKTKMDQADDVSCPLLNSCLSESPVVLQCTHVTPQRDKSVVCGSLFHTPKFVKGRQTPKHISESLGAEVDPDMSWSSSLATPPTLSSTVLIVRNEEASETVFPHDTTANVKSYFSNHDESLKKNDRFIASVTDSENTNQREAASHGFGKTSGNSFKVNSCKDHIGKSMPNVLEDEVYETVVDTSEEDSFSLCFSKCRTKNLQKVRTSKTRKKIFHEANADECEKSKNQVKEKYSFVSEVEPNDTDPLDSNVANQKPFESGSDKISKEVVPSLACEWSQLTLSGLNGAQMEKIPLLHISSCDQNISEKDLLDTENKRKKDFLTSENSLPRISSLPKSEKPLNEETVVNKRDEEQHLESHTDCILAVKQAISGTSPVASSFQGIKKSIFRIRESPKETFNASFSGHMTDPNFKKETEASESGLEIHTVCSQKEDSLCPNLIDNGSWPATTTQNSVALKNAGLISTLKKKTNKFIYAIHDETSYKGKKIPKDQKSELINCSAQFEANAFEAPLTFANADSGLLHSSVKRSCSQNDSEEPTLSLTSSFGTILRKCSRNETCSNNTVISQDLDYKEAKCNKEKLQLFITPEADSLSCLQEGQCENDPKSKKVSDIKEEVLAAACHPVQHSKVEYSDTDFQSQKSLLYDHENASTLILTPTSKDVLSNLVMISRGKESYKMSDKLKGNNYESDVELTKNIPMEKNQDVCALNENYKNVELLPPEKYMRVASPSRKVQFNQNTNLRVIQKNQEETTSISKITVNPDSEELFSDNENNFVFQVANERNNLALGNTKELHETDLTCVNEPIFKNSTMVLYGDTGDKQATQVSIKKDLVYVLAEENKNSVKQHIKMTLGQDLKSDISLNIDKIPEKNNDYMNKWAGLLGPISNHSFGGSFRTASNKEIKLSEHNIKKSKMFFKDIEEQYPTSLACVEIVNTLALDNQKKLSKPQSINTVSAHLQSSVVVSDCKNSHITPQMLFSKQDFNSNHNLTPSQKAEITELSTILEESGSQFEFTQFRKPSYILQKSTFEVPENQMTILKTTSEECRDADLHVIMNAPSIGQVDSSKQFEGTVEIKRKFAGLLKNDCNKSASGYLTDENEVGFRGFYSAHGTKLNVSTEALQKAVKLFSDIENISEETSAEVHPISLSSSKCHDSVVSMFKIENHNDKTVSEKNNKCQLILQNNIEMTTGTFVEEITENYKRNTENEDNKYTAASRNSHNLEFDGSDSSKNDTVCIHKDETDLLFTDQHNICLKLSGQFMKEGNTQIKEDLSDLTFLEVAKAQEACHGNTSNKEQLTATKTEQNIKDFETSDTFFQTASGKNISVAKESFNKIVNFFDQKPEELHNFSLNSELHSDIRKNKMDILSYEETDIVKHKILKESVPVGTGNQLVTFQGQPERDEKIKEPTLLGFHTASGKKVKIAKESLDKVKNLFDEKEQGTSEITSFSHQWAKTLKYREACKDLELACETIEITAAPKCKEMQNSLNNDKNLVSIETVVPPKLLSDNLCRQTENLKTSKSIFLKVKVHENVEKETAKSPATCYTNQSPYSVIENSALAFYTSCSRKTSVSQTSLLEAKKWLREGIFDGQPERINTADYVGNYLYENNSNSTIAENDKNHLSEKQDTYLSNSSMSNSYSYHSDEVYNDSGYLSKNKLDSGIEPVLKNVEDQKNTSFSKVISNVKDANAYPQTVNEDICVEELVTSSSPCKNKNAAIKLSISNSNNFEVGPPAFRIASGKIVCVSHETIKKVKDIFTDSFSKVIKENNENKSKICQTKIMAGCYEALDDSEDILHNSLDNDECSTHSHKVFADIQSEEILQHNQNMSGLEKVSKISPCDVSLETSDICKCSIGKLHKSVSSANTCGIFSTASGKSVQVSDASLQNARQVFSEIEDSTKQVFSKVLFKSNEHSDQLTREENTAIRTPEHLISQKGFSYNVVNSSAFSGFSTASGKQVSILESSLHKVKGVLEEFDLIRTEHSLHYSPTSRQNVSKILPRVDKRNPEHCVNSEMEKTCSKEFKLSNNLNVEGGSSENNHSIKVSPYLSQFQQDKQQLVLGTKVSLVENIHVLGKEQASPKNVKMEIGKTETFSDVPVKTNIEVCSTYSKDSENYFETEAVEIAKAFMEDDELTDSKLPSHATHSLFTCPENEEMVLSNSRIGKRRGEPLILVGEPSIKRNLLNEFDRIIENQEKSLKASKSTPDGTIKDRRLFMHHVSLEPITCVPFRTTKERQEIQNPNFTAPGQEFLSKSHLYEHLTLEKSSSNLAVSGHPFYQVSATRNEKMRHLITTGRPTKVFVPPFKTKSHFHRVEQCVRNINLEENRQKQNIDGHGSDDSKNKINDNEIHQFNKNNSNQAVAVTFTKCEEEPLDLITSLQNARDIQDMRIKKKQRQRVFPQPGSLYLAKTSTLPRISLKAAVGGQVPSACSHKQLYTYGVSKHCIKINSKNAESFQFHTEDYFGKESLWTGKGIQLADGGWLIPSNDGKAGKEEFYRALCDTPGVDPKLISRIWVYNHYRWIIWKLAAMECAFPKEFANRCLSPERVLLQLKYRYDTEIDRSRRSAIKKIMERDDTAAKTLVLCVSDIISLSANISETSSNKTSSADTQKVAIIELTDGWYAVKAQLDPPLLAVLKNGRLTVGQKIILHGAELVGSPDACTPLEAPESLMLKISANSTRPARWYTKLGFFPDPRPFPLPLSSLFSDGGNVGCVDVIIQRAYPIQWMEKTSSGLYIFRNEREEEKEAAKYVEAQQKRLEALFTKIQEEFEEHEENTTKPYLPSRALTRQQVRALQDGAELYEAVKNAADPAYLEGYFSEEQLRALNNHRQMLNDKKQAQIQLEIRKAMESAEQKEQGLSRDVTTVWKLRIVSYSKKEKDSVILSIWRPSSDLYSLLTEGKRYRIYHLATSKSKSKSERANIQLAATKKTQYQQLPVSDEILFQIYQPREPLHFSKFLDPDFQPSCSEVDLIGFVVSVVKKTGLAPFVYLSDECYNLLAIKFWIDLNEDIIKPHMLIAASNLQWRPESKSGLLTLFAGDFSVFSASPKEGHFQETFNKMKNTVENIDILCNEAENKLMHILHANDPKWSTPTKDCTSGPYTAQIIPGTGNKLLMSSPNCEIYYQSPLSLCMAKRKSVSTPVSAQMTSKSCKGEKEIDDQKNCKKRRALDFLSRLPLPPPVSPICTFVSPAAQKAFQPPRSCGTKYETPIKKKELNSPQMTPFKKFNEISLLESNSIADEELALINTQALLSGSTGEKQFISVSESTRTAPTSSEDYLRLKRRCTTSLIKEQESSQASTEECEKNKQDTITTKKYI
UniProt O75928: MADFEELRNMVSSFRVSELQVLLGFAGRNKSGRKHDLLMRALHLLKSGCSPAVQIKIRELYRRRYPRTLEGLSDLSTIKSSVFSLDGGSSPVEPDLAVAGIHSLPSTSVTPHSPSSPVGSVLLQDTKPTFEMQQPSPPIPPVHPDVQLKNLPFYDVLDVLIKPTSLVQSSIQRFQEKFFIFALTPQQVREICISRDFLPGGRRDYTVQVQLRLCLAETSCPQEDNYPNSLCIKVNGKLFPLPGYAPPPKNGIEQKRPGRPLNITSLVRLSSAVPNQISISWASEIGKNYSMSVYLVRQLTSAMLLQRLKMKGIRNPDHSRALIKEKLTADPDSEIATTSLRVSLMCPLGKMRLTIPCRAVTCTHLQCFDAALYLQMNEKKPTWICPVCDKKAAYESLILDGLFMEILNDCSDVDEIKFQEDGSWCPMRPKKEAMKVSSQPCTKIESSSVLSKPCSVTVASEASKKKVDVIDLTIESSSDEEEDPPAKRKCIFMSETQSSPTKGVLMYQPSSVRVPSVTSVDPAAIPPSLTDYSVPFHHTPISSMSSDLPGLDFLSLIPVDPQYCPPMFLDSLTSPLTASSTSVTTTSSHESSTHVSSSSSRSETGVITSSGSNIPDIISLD
UniProt P40763: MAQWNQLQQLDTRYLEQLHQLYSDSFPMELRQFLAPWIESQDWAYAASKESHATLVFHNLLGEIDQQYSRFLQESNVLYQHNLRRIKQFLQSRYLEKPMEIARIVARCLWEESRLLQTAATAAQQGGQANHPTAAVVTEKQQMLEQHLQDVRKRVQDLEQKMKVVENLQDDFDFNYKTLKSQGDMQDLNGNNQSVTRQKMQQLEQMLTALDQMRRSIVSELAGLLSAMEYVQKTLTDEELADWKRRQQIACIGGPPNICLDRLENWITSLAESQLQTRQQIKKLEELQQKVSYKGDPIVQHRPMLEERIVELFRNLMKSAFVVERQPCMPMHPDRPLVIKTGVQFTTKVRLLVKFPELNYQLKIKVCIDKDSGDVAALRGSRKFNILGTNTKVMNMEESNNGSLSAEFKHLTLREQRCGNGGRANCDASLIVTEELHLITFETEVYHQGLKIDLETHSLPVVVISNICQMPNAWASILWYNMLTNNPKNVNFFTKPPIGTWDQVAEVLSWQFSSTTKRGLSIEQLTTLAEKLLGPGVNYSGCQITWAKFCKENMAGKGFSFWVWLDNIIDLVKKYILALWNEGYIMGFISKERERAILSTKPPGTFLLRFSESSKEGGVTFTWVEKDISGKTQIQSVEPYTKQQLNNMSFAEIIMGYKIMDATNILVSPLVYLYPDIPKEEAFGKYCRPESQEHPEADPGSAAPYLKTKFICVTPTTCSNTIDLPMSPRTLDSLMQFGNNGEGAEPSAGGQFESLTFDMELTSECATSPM
UniProt Q9UPN9: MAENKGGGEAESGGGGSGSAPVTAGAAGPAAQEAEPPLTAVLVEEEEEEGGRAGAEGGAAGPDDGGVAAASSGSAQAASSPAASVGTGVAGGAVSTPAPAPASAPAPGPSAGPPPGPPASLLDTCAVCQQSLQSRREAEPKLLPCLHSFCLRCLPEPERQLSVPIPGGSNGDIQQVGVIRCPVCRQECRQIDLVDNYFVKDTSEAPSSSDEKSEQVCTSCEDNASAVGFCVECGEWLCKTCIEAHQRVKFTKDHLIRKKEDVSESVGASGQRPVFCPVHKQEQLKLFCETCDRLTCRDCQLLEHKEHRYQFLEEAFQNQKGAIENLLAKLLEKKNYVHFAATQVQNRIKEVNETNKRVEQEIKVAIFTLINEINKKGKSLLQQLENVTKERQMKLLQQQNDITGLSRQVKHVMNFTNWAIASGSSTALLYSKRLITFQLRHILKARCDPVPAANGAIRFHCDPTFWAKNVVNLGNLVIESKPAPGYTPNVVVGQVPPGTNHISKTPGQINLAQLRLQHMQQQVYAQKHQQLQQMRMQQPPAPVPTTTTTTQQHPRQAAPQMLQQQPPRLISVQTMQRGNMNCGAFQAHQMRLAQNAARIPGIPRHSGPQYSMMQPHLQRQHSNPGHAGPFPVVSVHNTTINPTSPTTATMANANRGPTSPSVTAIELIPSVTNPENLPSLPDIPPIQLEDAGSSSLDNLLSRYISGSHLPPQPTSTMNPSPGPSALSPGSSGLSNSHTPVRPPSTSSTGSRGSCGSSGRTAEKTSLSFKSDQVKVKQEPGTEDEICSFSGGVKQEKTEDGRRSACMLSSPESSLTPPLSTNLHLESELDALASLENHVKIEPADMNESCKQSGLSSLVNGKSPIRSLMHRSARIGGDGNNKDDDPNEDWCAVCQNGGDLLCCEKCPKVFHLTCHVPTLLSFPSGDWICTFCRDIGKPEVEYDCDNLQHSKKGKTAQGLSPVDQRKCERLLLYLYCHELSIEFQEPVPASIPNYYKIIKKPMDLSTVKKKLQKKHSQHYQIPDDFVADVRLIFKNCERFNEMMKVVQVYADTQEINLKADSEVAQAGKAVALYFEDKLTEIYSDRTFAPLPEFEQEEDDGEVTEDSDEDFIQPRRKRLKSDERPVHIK

B1: SENP5 (protein, UniProt Q96HI0 1-755)
chain: MKKQRKILWRKGIHLAFSEKWNTGFGGFKKFYFHQHLCILKAKLGRPVTWNRQLRHFQGRKKALQIQKTWIKDEPLCAKTKFNVATQNVSTLSSKVKRKDAKHFISSSKTLLRLQAEKLLSSAKNSDHEYCREKNLLKAVTDFPSNSALGQANGHRPRTDPQPSDFPMKFNGESQSPGESGTIVVTLNNHKRKGFCYGCCQGPEHHRNGGPLIPKKFQLNQHRRIKLSPLMMYEKLSMIRFRYRILRSQHFRTKSKVCKLRKAQRSWVQKVTGDHQETRRENGEGGSCSPFPSPEPKDPSCRHQPYFPDMDSSAVVKGTNSHVPDCHTKGSSFLGKELSLDEAFPDQQNGSATNAWDQSSCSSPKWECTELIHDIPLPEHRSNTMFISETEREIMTLGQENQTSSVSDDRVKLSVSGADTSVSSVDGPVSQKAVQNENSYQMEEDGSLKQSILSSELLDHPYCKSPLEAPLVCSGLKLENQVGGGKNSQKASPVDDEQLSVCLSGFLDEVMKKYGSLVPLSEKEVLGRLKDVFNEDFSNRKPFINREITNYRARHQKCNFRIFYNKHMLDMDDLATLDGQNWLNDQVINMYGELIMDAVPDKVHFFNSFFHRQLVTKGYNGVKRWTKKVDLFKKSLLLIPIHLEVHWSLITVTLSNRIISFYDSQGIHFKFCVENIRKYLLTEAREKNRPEFLQGWQTAVTKCIPQQKNDSDCGVFVLQYCKCLALEQPFQFSQEDMPRVRKRIYKELCECRLMD
B2: PIAS4 (protein, UniProt Q8N2W9 1-510)
chain: MAAELVEAKNMVMSFRVSDLQMLLGFVGRSKSGLKHELVTRALQLVQFDCSPELFKKIKELYETRYAKKNSEPAPQPHRPLDPLTMHSTYDRAGAVPRTPLAGPNIDYPVLYGKYLNGLGRLPAKTLKPEVRLVKLPFFNMLDELLKPTELVPQNNEKLQESPCIFALTPRQVELIRNSRELQPGVKAVQVVLRICYSDTSCPQEDQYPPNIAVKVNHSYCSVPGYYPSNKPGVEPKRPCRPINLTHLMYLSSATNRITVTWGNYGKSYSVALYLVRQLTSSELLQRLKTIGVKHPELCKALVKEKLRLDPDSEIATTGVRVSLICPLVKMRLSVPCRAETCAHLQCFDAVFYLQMNEKKPTWMCPVCDKPAPYDQLIIDGLLSKILSECEDADEIEYLVDGSWCPIRAEKERSCSPQGAILVLGPSDANGLLPAPSVNGSGALGSTGGGGPVGSMENGKPGADVVDLTLDSSSSSEDEEEEEEEEEDEDEEGPRPKRRCPFQKGLVPAC
B3: TRIM24 (protein, UniProt O15164 1-1050)
chain: MEVAVEKAVAAAAAASAAASGGPSAAPSGENEAESRQGPDSERGGEAARLNLLDTCAVCHQNIQSRAPKLLPCLHSFCQRCLPAPQRYLMLPAPMLGSAETPPPVPAPGSPVSGSSPFATQVGVIRCPVCSQECAERHIIDNFFVKDTTEVPSSTVEKSNQVCTSCEDNAEANGFCVECVEWLCKTCIRAHQRVKFTKDHTVRQKEEVSPEAVGVTSQRPVFCPFHKKEQLKLYCETCDKLTCRDCQLLEHKEHRYQFIEEAFQNQKVIIDTLITKLMEKTKYIKFTGNQIQNRIIEVNQNQKQVEQDIKVAIFTLMVEINKKGKALLHQLESLAKDHRMKLMQQQQEVAGLSKQLEHVMHFSKWAVSSGSSTALLYSKRLITYRLRHLLRARCDASPVTNNTIQFHCDPSFWAQNIINLGSLVIEDKESQPQMPKQNPVVEQNSQPPSGLSSNQLSKFPTQISLAQLRLQHMQQQVMAQRQQVQRRPAPVGLPNPRMQGPIQQPSISHQQPPPRLINFQNHSPKPNGPVLPPHPQQLRYPPNQNIPRQAIKPNPLQMAFLAQQAIKQWQISSGQGTPSTTNSTSSTPSSPTITSAAGYDGKAFGSPMIDLSSPVGGSYNLPSLPDIDCSSTIMLDNIVRKDTNIDHGQPRPPSNRTVQSPNSSVPSPGLAGPVTMTSVHPPIRSPSASSVGSRGSSGSSSKPAGADSTHKVPVVMLEPIRIKQENSGPPENYDFPVVIVKQESDEESRPQNANYPRSILTSLLLNSSQSSTSEETVLRSDAPDSTGDQPGLHQDNSSNGKSEWLDPSQKSPLHVGETRKEDDPNEDWCAVCQNGGELLCCEKCPKVFHLSCHVPTLTNFPSGEWICTFCRDLSKPEVEYDCDAPSHNSEKKKTEGLVKLTPIDKRKCERLLLFLYCHEMSLAFQDPVPLTVPDYYKIIKNPMDLSTIKKRLQEDYSMYSKPEDFVADFRLIFQNCAEFNEPDSEVANAGIKLENYFEELLKNLYPEKRFPKPEFRNESEDNKFSDDSDDDFVQPRKKRLKSIEERQLLK
B4: BAZ1B (protein, UniProt Q9UIG0 1-1483)
chain: MAPLLGRKPFPLVKPLPGEEPLFTIPHTQEAFRTREEYEARLERYSERIWTCKSTGSSQLTHKEAWEEEQEVAELLKEEFPAWYEKLVLEMVHHNTASLEKLVDTAWLEIMTKYAVGEECDFEVGKEKMLKVKIVKIHPLEKVDEEATEKKSDGACDSPSSDKENSSQIAQDHQKKETVVKEDEGRRESINDRARRSPRKLPTSLKKGERKWAPPKFLPHKYDVKLQNEDKIISNVPADSLIRTERPPNKEIVRYFIRHNALRAGTGENAPWVVEDELVKKYSLPSKFSDFLLDPYKYMTLNPSTKRKNTGSPDRKPSKKSKTDNSSLSSPLNPKLWCHVHLKKSLSGSPLKVKNSKNSKSPEEHLEEMMKMMSPNKLHTNFHIPKKGPPAKKPGKHSDKPLKAKGRSKGILNGQKSTGNSKSPKKGLKTPKTKMKQMTLLDMAKGTQKMTRAPRNSGGTPRTSSKPHKHLPPAALHLIAYYKENKDREDKRSALSCVISKTARLLSSEDRARLPEELRSLVQKRYELLEHKKRWASMSEEQRKEYLKKKREELKKKLKEKAKERREKEMLERLEKQKRYEDQELTGKNLPAFRLVDTPEGLPNTLFGDVAMVVEFLSCYSGLLLPDAQYPITAVSLMEALSADKGGFLYLNRVLVILLQTLLQDEIAEDYGELGMKLSEIPLTLHSVSELVRLCLRRSDVQEESEGSDTDDNKDSAAFEDNEVQDEFLEKLETSEFFELTSEEKLQILTALCHRILMTYSVQDHMETRQQMSAELWKERLAVLKEENDKKRAEKQKRKEMEAKNKENGKVENGLGKTDRKKEIVKFEPQVDTEAEDMISAVKSRRLLAIQAKKEREIQEREMKVKLERQAEEERIRKHKAAAEKAFQEGIAKAKLVMRRTPIGTDRNHNRYWLFSDEVPGLFIEKGWVHDSIDYRFNHHCKDHTVSGDEDYCPRSKKANLGKNASMNTQHGTATEVAVETTTPKQGQNLWFLCDSQKELDELLNCLHPQGIRESQLKERLEKRYQDIIHSIHLARKPNLGLKSCDGNQELLNFLRSDLIEVATRLQKGGLGYVEETSEFEARVISLEKLKDFGECVIALQASVIKKFLQGFMAPKQKRRKLQSEDSAKTEEVDEEKKMVEEAKVASALEKWKTAIREAQTFSRMHVLLGMLDACIKWDMSAENARCKVCRKKGEDDKLILCDECNKAFHLFCLRPALYEVPDGEWQCPACQPATARRNSRGRNYTEESASEDSEDDESDEEEEEEEEEEEEEDYEVAGLRLRPRKTIRGKHSVIPPAARSGRRPGKKPHSTRRSQPKAPPVDDAEVDELVLQTKRSSRRQSLELQKCEEILHKIVKYRFSWPFREPVTRDEAEDYYDVITHPMDFQTVQNKCSCGSYRSVQEFLTDMKQVFTNAEVYNCRGSHVLSCMVKTEQCLVALLHKHLPGHPYVRRKRKKFPDRLAEDEGDSEPEAVGQSRGRRQKK

target: FLTbID-PML^WT (human) (UniProt P29590); test: proximity labelling; full-length TurboID fused to PML^WT or PML^3MAS, or TurboID alone, in U2OS stable cells; biotin 50 uM 2 h, with or without ATO 1 uM 2 h; NeutrAvidin pull-down, LC-MS/MS

binding, binds:
BRCA2 (from UniProt P51587 1-3418)
JUN (from UniProt P05412 1-331)
PIAS2 (from UniProt O75928 1-621)
STAT3 (from UniProt P40763 1-770)
TRIM33 (from UniProt Q9UPN9 1-1127)
B1
B2
B3

target: T1, FLAG-NTurboID^194-SALL1^ΔSUMO; test: proximity labelling; SALL1 SUMO-ID: HEK293FT TRIPZ-MYC-C-SUMO2nc stable cells transfected with FLAG-N-SALL1^WT or ^ΔSUMO, doxycycline 1 ug/mL 24 h, biotin 50 uM 4 h; NeutrAvidin pull-down, LC-MS/MS

binding, binds:
B4

From PMC8602451
